# Measured values from PubChem BioAssay AID602441 (National Center for Advancing Translational Sciences (NCATS), 2012).
# The campaign covered roughly 1,300 compounds. Fewer than 10 were called active. Not shown: some 9% with an inconclusive outcome. Calls come from the whole dose curve; as a rule, active = well fitted curve in the direction sought with a large enough effect; inconclusive = small, poorly fitted or top-dose-only effect, or another doubt; inactive = no such curve, though single readings can be large or run the other way. This is one part of the list.
# Assay: qHTS for antagonists of the Thyroid Stimulation Hormone Receptor: Hit Validation in Parental Cell Line; note: 0% is about no effect
# Conditions: parental HEK293 cells lacking TSHR, counter-screen; series mostly up to 56.9 µM; activity change, negative = inhibition: at the top concentration
# How it was run: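 Counterscreen in untransfected parental HEK-EM 293 cells. Lysate cAMP displaces cAMP-d2 from cryptate-tagged anti-cAMP antibody, and homogeneous TR-FRET is read at 665 nm with 337 nm excitation after stimulation.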
row,Compound,"activity change, negative = inhibition"
1,CS(=O)(=O)N1CCc2cc(C(=O)Nc3ccc(COCC(F)(F)F)cc3)ccc21,inactive: -0.734%
2,COc1ccccc1CNC(=O)CSc1nc(N)c(C#N)c(-c2cccs2)c1C#N,inactive: 0.573%
3,Cc1cc(NC(=O)c2cccc(S(=O)(=O)N3CCOCC3)c2)c2ccccc2n1,inactive: 1.33%
4,Cc1ccnc(OC(C(=O)O)C(OCCc2ccccc2)(c2ccccc2)c2ccccc2)n1 (configuration not stated),inactive: 2.81%
5,Cc1cc(C)c(C2=NOC3C4CCC(C4)C23)c(C)c1 (configuration not stated),inactive: 2.6%
6,CCN(CCCNC(=O)Cn1ncc2c([nH]c3ccc(C)cc32)c1=O)c1cccc(C)c1,inactive: 6.57%
7,CC1CCCCN1C(=O)CSCC(=O)Nc1nc(-c2cccs2)cs1 (configuration not stated),inactive: -1.89%
8,CC(NC(=O)c1cc(=O)[nH]c2ccccc12)c1ccc(F)cc1F (configuration not stated),inactive: 4.75%
9,Cc1ccc(OCc2nnc(NC(=O)c3cccnc3)s2)cc1,inactive: 3.34%
10,COc1ccc(NC(=O)c2ccc(-c3ccccc3)cc2)cc1NS(=O)(=O)c1ccc(F)cc1,inactive: -5.28%
11,Cc1cccc2c1NC(=O)C2(c1ccc(O)cc1)c1ccc(O)cc1,inactive: 4.58%
12,Cc1cc(C)cc(C(=O)NC(CC(N)=O)c2ccc(NCCN3CCCC3)c([N+](=O)[O-])c2)c1 (configuration not stated),inactive: 2.31%
13,COc1ccccc1N1CCN(C(=O)CCC(=O)N2CCN(c3ccc(F)cc3)CC2)CC1,inactive: -6.6%
14,O=C(Cn1ncc2c([nH]c3ccccc32)c1=O)NCC1CCN(Cc2ccc(F)cc2)CC1,inactive: -2.21%
15,O=C(CCSc1ccc(Cl)c(Cl)c1)NC12CC3CC(CC(C3)C1)C2,inactive: 3.68%
16,Cc1ccc(CNS(=O)(=O)c2ccc(CN3C(=O)c4cccnc4C3=O)s2)o1,inactive: 1.68%
17,COc1cc2cnc(-c3ccccc3)c(-c3ccc(C#N)cc3)c2cc1OC,inactive: -2.35%
18,Cc1cc(C)n2nc(SCC(=O)Nc3ccccc3C)nc2n1,inactive: 2.99%
19,O=S(=O)(Nc1cccnc1)c1ccc(Br)c2ccccc12,inactive: 29.3%
20,Cc1ccc(CSc2nnc(SCC(=O)N/N=C/c3c(C)nn(-c4ccccc4)c3C)s2)cc1,inactive: 1.1%
21,CCSc1ncc(Cl)c(C(=O)Nc2ccccc2OC)n1,inactive: 3.88%
22,COc1ccc(-c2csc3ncnc(N4CCN(S(=O)(=O)c5cccs5)CC4)c23)cc1,inactive: 0.325%
23,Cc1ccc(OCc2cc(C(=O)NCC3COCCO3)no2)cc1C (configuration not stated),inactive: 3.15%

# Quoted at random: 2 compounds from above.
row,Compound,"activity change, negative = inhibition"
17,COc1cc2cnc(-c3ccccc3)c(-c3ccc(C#N)cc3)c2cc1OC,inactive: -2.35%
6,CCN(CCCNC(=O)Cn1ncc2c([nH]c3ccc(C)cc32)c1=O)c1cccc(C)c1,inactive: 6.57%

# Next part:

row,Compound,"activity change, negative = inhibition"
1,O=C(NCCC1=CCCCC1)c1ccc2c(c1)N(Cc1ccccc1)C(=O)CS2,inactive: -1.82%
2,CC1CC(C)CN(C(=O)c2ccc3c(=O)n(Cc4ccc5c(c4)OCO5)c(=S)[nH]c3c2)C1 (configuration not stated),inactive: -0.844%
3,CC(NC(=O)c1ccc([N+](=O)[O-])o1)C1CC2CCC1C2 (configuration not stated),inactive: 2.74%
4,O=C(NCCc1ccccc1)C(=O)NCC1OCCCN1S(=O)(=O)c1cc(F)ccc1F (configuration not stated),inactive: 2.75%
5,O=[N+]([O-])c1c(NCCO)cc(Sc2nc3ccccc3s2)c2nonc12,inactive: -0.833%
6,Clc1ccc(C2Nc3cccc4cccc(c34)N2)cc1,inactive: -6.26%
7,CC(C)C(c1nnnn1Cc1cccs1)N1CCN(c2ccccc2)CC1 (configuration not stated),inactive: 0.0915%
8,COc1ccc(/C=N/n2c(SC)nnc(C(C)(C)C)c2=O)cc1,inactive: -2.65%
9,O=C(Nc1nnc(C(F)(F)F)s1)c1ccc(Br)s1,inactive: 4.59%
10,C=CCC1(CC=C)CCCN1C(=O)c1cc(COc2ccc(C)nc2)on1,inactive: 0.634%
11,S=c1[nH]nc(-c2ccccc2)n1C1C=CCCC1 (configuration not stated),inactive: 3.95%
12,COC(=O)c1sc(NC(=O)C(C)C)c(C(=O)OC)c1C,inactive: 2.35%
13,O=[N+]([O-])c1ccc(NC(=S)NCc2ccc(F)cc2)cc1,inactive: -9.76%
14,Cc1ccc(NC(=S)c2nc3ccccc3s2)cc1,inactive: 2.04%
15,Cc1ccc(NC(=S)NC(=O)c2ccc(F)cc2)cc1S(=O)(=O)Nc1cccc(Cl)c1,inactive: -0.251%
16,O=C(Nc1nnc(S(=O)(=O)N2CCCCC2)s1)c1cccc(Br)c1,inactive: 1.82%
17,Cc1ccc(C(=O)Nc2ccc(Br)c(C(F)(F)F)c2)cc1,inactive: -6.5%
18,Cc1ccc(S(=O)(=O)N2CCCCC2)cc1NC(=O)Cn1ncc(Cl)c(Cl)c1=O,inactive: -4.17%
19,COc1ccc(CNC(=O)Cn2nc(Cc3cccnc3)c3ccccc3c2=O)cc1,inactive: 3.96%
20,O=C(N/N=C/c1cccc(Oc2ccc([N+](=O)[O-])cc2[N+](=O)[O-])c1)c1cncc(Br)c1,inactive: 0.39%
21,CCc1nnc(NC(=O)c2ccc(Cl)c(S(=O)(=O)N3CCc4ccccc43)c2)s1,inactive: -0.247%
22,COc1ccc(/C=N/n2c(C)nnc2C)c(OC)c1OC,inactive: 2.14%
23,COc1ccc(-c2cc3c(=O)n(CC(=O)NCc4cccnc4)nc(C)n3n2)cc1,inactive: 0.739%

row,Compound,"activity change, negative = inhibition"
1,Cc1nc(N2CCN(S(=O)(=O)c3ccccc3C#N)CC2)c2c(-c3cccs3)csc2n1,inactive: -3.34%
2,Cc1ccc(S(=O)(=O)N2CCCC(C(=O)NC3CCCC3)C2)cc1Cl (configuration not stated),inactive: 5.01%
3,CNC(=S)n1cnc(N)n1,inactive: 5.9%
4,N#Cc1c(Cl)nsc1NC(=O)c1ccccc1,inactive: -1.11%
5,COc1ccc(OCC(=O)NC(=S)Nc2ccc(N3CCOCC3)c(Cl)c2)cc1,inactive: -3.54%
6,CC(=O)N1c2ccc(S(=O)(=O)N3CCC(C(=O)NC4CCCCC4C)CC3)cc2CC1C (configuration not stated),inactive: 1.67%
7,N#CC(C#N)=NNc1ccc([N+](=O)[O-])cc1,inactive: -10.8%
8,O=C(CSc1ccc(F)cc1)N1CCC(c2nc3ccccc3s2)CC1,inactive: 4.62%
9,CSc1cnn(Cc2ccccc2)c(=O)c1SCc1ccccc1,inactive: -0.181%
10,CSc1nnc(C(C)(C)C)c(=O)n1/N=C/c1c(O)ccc2ccccc12,inactive: -0.0672%
11,CCn1c(=S)sc2c(=O)n(CC(=O)Nc3ccccc3OC)c(C)nc21,inactive: -0.358%
12,CS(=O)(=O)N(CCc1ccccc1)CC(=O)Nc1ccc(OCc2ccccc2)cc1,inactive: -2.69%
13,COc1ccc(CNC(=O)C(C)OC(=O)c2cccs2)cc1 (configuration not stated),inactive: 4.94%
14,COc1cccc(O)c1CN1CCC(C(=O)Nc2ccc(Oc3cccnc3)cc2)CC1,inactive: -18%
15,O=S(=O)(c1cccc(Br)c1)N1CCN(CCc2ccccc2)CC1,inactive: 6.2%
16,COc1ccc(CC(=O)Oc2cc(C)ccc2C)cc1,inactive: 2.72%
17,Cc1cc2nc(SCCOC(=O)Nc3ccc(Cl)cc3)nc(C)c2cc1C,inactive: 4.76%
18,COc1ccc(NC(=S)NC(=O)/C=C/c2ccco2)cc1,inactive: -5.05%
19,S=c1sc2c(Cl)ncnc2n1-c1ccccc1,inactive: -6.96%
20,COc1ccc(NC(=O)CCNS(=O)(=O)c2ccc3c(c2)CC(C)N3C(C)=O)cc1 (configuration not stated),inactive: 2.65%
21,COc1ccc(Cc2nc(C(=O)Nc3ccc(Cl)cc3)cs2)cc1,inactive: 0.0134%
